Test results taken from PubChem BioAssay AID485298 (National Center for Advancing Translational Sciences (NCATS), 2010).
The campaign covered roughly 320,000 compounds. About 740 (0.23%) were called active. The shares of active, inactive and inconclusive entries below differ from those in the screen. Calls come from the whole dose curve; as a rule, active = well fitted activation curve with a large enough effect; inconclusive = small, poorly fitted or top-dose-only effect; inactive = no such curve, though single readings can be large or run the other way. A potency beside an inconclusive call is a rough fit, not a confirmed value.

experiment: qHTS Assay for Small Molecule Inhibitors of Mitochondrial Division or Activators of Mitochondrial Fusion; note: nearly all actives have a fitted effect of over 45% in size; details: S. cerevisiae fusion-defective mutant growth rescue, CellTiterGlo 48 h; series mostly up to 46.1 µM
Summary of the method: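 Read-out: ATP-based luminescence (CellTiterGlo, 10 min ambient) reporting growth of fusion-defective ts yeast after 48 hours at 37C on glycerol/ethanol YPEG medium in the presence of compound.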
Potency is the fitted concentration of half-maximal effect.

SMILES	Potency
O=C(O)c1ccc(CSC2CCCCC2)cc1	inconclusive: 11.2 µM [activator, partial curve]
O=C(O)CC1NC(=S)N(c2ccccc2)C1=O (stereo unspecified)	inactive
CC(=O)c1c(C)nc(C)nc1NC(=O)C(C)C	inconclusive: 31.6 µM [activator, single point]
COc1ccccc1NS(=O)(=O)c1ccc2oc(SC)nc2c1	inactive
COc1ccc(NC(=O)c2ccc(C(=O)Nc3ccc(OC)cc3OC)cc2)c(OC)c1	inactive
Cc1nc(Nc2ccc3c(c2)OCCO3)c2nnn(Cc3ccccc3Cl)c2n1	inconclusive: 22.4 µM [activator, single point]
O=C(O)c1ccccc1C(=O)OCCCCOC(=O)c1ccccc1C(=O)O	inconclusive: 17.8 µM [activator, single point]
CCc1cccc(N(C(=O)c2csnn2)C(C(=O)NC2CCCCC2)c2ccncc2)c1 (stereo unspecified)	inactive
CC(OC(=O)Cc1cccc(C(F)(F)F)c1)C(=O)Nc1ccc(Cl)cn1 (stereo unspecified)	inactive
Cn1c(-c2ccc(Br)o2)nc2ccccc21	inactive
COC(=O)Cc1ccc(NC(=O)c2ccccc2Br)cc1	inactive
Cc1ccc(CN2CCN(/N=C/C=C/c3ccccc3[N+](=O)[O-])CC2)cc1	inconclusive: 5.01 µM [activator, full curve]
N#Cc1ccc(C(=O)Nc2nc(-c3cccs3)c(C(=O)C(F)(F)F)s2)cc1	inconclusive: 2.82 µM [activator, full curve]
COc1ccccc1N1CCN(C(c2ccccc2)c2nnnn2CCc2ccccc2)CC1 (stereo unspecified)	inconclusive: 20 µM [activator, single point]
CC(=O)Nc1ccc2[nH]c(C)c(CC=C(Cl)Cl)c(=O)c2c1	inactive
O=C(NNC1=Nc2ccccc2SC1)c1ccc(Cl)cc1	inconclusive: 7.08 µM [activator, partial curve]
COc1ccc(CC(=O)N[C@@H](C)C(=O)N2CCC3(CC2)NCCc2[nH]cnc23)cc1	inconclusive: 4.47 µM [activator, partial curve]
CCN1CCCC1CNCC(O)COc1ccc(C(C)(C)C)cc1C (stereo unspecified)	inactive
NC(=NCCc1c[nH]c2ccccc12)NS(=O)(=O)c1ccc2ccccc2c1	inconclusive: 35.5 µM [activator, single point]
Clc1ccc(CN2C3=NCCCN3c3ccccc32)cc1	inconclusive: 10 µM [activator, partial curve]
CCCc1cc(=O)n2c([nH]c3ccccc32)c1C#N	inconclusive: 3.98 µM [activator, full curve]
O=C(CN(C(=O)CCC(=O)Nc1nccs1)c1cccc(F)c1)NCc1ccccc1	inactive
COC(=O)C1Cc2c([nH]c3ccccc23)C(C(C)C)N1 (stereo unspecified)	inconclusive: 35.5 µM [activator, single point]

SMILES	Potency
CN(c1ccccc1)S(=O)(=O)c1ccc(Cl)c(C(=O)NCCc2c[nH]c3ccccc23)c1	inconclusive: 35.5 µM [activator, single point]
CCCSC1=C(C#N)C(c2ccc(Cl)cc2Cl)CC(=O)N1 (stereo unspecified)	inconclusive: 14.1 µM [activator, single point]
O=C(CNC(=O)c1ccccc1F)N/N=C/c1cc(Br)ccc1OC(=O)/C=C/c1ccco1	inconclusive: 35.5 µM [activator, single point]
CCC(C)N(C)C(=O)c1cc2ccccc2c(-c2ccccc2Cl)n1 (stereo unspecified)	inconclusive: 23.1 µM [activator, single point]
CCOC(=O)C1Cn2c(nc3c(c2=O)C2(CCCC2)Cc2ccccc2-3)S1 (stereo unspecified)	inconclusive: 12.6 µM [activator, partial curve]
Cc1ccc(N2C(=O)c3ccccc3C2Nc2ccc(S(=O)(=O)N3CCOCC3)cc2)nc1 (stereo unspecified)	inactive
Cc1ccc(C(C(=O)NC2CCCCC2)N(Cc2cccnc2)C(=O)C2COc3ccccc3O2)o1 (stereo unspecified)	inconclusive: 35.5 µM [activator, single point]
COc1ccccc1NC(=O)c1ccc(NC(=O)COC(=O)C2(C)CC2(Cl)Cl)cc1 (stereo unspecified)	inconclusive: 35.5 µM [activator, single point]
Cc1nc2ccc(S(=O)(=O)Nc3cc(-c4nc5cccnc5s4)ccc3C)cc2s1	inconclusive: 35.5 µM [activator, single point]
CCc1ccc(NC(=O)C2CCN(S(=O)(=O)c3ccc4c(c3)CC(C)N4C(C)=O)CC2)cc1 (stereo unspecified)	inactive
CC(C)Cn1c(=O)c2c(nc3n2CCCN3Cc2ccccc2)n(C)c1=O	inactive
O=C(O)CCc1ccc(-c2ccc(Cl)cc2)n1Cc1ccco1	inconclusive: 15.8 µM [activator, single point]
COc1ccc(-n2cc3c(-c4cccc(Br)c4)nnc(C)c3n2)cc1	inconclusive: 28.2 µM [activator, single point]
CN(Cc1ccccc1)C(=O)c1[nH]cnc1C(=O)Nc1ccc(Cl)cc1	inconclusive: 22.4 µM [activator, single point]
O=C(COC(=O)c1ccccc1O)Nc1ncc(Cl)cc1Cl	inconclusive: 11.2 µM [activator, partial curve]
O=C(COc1ccccc1Br)Nc1ccccc1C(F)(F)F	inconclusive: 20 µM [activator, single point]
O=C(CCN1C(=O)/C(=C/c2cccs2)SC1=S)Nc1ccc(C(=O)O)c(O)c1	inactive
CCOc1ccc(NC(=O)Cn2nnc(C(=O)NCCc3ccc(OC)c(OC)c3)c2N)cc1	inactive
COC(=O)C(NNc1ccccc1C)(NC(=O)c1ccc(F)cc1)C(F)(F)F (stereo unspecified)	inactive
COc1ccc(CCN2C(=O)c3ccccc3NC2c2cc(Cl)c(O)c(OC)c2)cc1 (stereo unspecified)	inconclusive: 20 µM [activator, partial curve, poor fit]
O=C(NC1(Cc2ccccc2)CCN(CCCc2ccccc2)C1=O)c1ccccc1 (stereo unspecified)	inconclusive: 11.2 µM [activator, partial curve]
CC1S/C(=N/N=C2CCCCC2)NC1=O (stereo unspecified)	inactive
Clc1cccc(NCc2nnc(SCc3ccccc3Cl)o2)c1	inconclusive: 14.1 µM [activator, partial curve]
